No constants are given. Whether binding was seen depends on the method and setting. Binding seen in cells or lysates may run through a third protein. Binding can be weak; no strength is given.

The chains behind the UniProt entries cited, without tags or fusion partners. Where a name states a change or a piece, a line headed by the entry shows the natural chain unless it says otherwise.
UniProt O43670: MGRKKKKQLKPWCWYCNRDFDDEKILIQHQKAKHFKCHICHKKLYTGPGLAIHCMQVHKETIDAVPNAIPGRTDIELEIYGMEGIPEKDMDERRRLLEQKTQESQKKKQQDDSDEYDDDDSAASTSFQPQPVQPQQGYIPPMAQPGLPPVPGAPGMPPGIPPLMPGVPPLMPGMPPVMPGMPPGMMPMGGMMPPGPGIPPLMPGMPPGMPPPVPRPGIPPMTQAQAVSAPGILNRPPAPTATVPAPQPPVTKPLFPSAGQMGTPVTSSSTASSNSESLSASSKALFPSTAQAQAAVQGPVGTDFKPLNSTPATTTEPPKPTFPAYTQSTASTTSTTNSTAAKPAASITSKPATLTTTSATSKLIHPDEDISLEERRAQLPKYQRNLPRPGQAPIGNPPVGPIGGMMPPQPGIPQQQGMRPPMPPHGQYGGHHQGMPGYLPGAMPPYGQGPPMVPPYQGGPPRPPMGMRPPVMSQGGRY
UniProt Q01860: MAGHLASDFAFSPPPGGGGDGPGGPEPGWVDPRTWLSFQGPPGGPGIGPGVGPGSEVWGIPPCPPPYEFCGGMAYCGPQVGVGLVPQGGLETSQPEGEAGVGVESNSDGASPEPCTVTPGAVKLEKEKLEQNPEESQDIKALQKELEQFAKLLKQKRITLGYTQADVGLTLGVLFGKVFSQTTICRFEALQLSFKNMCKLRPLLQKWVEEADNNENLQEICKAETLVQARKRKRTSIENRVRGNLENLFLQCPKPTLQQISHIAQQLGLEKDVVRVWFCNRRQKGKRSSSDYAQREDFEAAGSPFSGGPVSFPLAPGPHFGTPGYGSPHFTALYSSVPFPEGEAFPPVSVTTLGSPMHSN
UniProt P48431: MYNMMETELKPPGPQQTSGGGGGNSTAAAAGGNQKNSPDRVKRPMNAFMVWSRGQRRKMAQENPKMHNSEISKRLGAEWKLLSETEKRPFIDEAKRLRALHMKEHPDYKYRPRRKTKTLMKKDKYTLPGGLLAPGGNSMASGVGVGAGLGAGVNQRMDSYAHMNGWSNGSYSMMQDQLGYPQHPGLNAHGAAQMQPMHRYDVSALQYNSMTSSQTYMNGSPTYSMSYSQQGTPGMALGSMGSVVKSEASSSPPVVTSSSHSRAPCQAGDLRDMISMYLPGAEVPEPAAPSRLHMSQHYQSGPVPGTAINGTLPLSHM

This passage reports binding results from paper PMC6197280, “A distinct isoform of ZNF207 controls self-renewal and pluripotency of human embryonic stem cells”.

What all share (experiment): co-IP; hESC cell extracts; beads coated with anti-OCT4, anti-SOX2 or anti-ZNF207 antibody, incubated with precleared whole-cell extracts at 4 °C overnight; lysis and wash buffer 50 mM Tris-HCl pH 8.0, 150 mM NaCl, 1 mM EDTA, 1% NP40, 10% glycerol; Western blot; control IP with IgG
(In western blotting, separated proteins are transferred to a membrane and probed.)

In experiment [1] the target is ZNF207 (human (endogenous in hESCs)) (UniProt O43670).
For experiment [2], the target named is OCT4 (human (endogenous in hESCs)) (UniProt Q01860).
The target of experiment [3] is SOX2 (human (endogenous in hESCs)) (UniProt P48431).

Turning to SOX2 (from UniProt P48431 1-317), the binding entry in experiment [1] is “binds”.

Turning to ZNF207 (from UniProt O43670-4), the binding result in experiment [2] and in experiment [3] was “binds” each time.
